PubChem BioAssay AID1224831 | NIAID | 2016
This is an unselected part of about 3,500 reagents tested. 731 of them (21%) count as active. 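Active means either lowered or raised reporter signal; the gene-median score did not drive the per-siRNA calls.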 The numbers tell different reagents against one gene apart. No sequences are given here.

- Aim: 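Retesting screen hits on the TLR4-driven TNF response with six separate siRNAs each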 (follow-up of hits)
- Cell system: human THP-1 B5 monocytic leukaemia cells carrying a TNF promoter luciferase reporter, made macrophage-like with PMA
- Knock-down reagent: single siRNA against human genes, 50 nM
- Time to read-out: about 68 h of knock-down, then 4 h LPS
- Treatment: LPS (Salmonella minnesota, TLR-grade) at 10 ng/ml for 4 h; PMA 5 ng/ml present during knock-down
- Measurement: 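TNF promoter reporter read as dual luciferase ratio after 4 h LPS, normalised per plate to its median, given as replicate mean robust z-score per siRNA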
- Reading the numbers: TNF reporter z-score: higher = stronger LPS-induced TNF reporter signal; z-score, median over gene's siRNAs: higher = stronger TNF reporter signal across the gene's siRNAs
- Call rule: 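Active when the replicate mean z-score is about -1 or lower, or about 1.5 or higher; lowered and raised TNF reporter signal both count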
- Meaning of the calls: active = changed TNF reporter (either direction); inactive = little change

no.	Gene	reagent no.	TNF reporter z-score, replicate mean	z-score, median over gene's siRNAs	Outcome
1	FPGS	1	-0.49	0.065	inactive
2	FPGS	2	0.86	0.065	inactive
3	FPGS	3	0.12	0.065	inactive
4	FPGS	4	0.01	0.065	inactive
5	FPGS	5	-0.87	0.065	inactive
6	FPGS	6	0.31	0.065	inactive
7	PRAF2	1	-0.23	-0.095	inactive
8	PRAF2	2	0.04	-0.095	inactive
9	PRAF2	3	-0.3	-0.095	inactive
10	PRAF2	4	-0.55	-0.095	inactive
11	PRAF2	5	0.6	-0.095	inactive
12	PRAF2	6	1.39	-0.095	inactive
13	SELL	1	1.32	0.255	inactive
14	SELL	2	0.03	0.255	inactive
15	SELL	3	0.48	0.255	inactive
16	SELL	4	-0.36	0.255	inactive
17	SELL	5	1.98	0.255	active
18	SELL	6	-0.29	0.255	inactive
19	HMGN2	1	2.38	-0.1	active
20	HMGN2	2	-0.09	-0.1	inactive
21	HMGN2	3	-0.11	-0.1	inactive
22	HMGN2	4	0.26	-0.1	inactive
23	HMGN2	5	-0.83	-0.1	inactive
24	HMGN2	6	-0.12	-0.1	inactive

9 neighbouring records from above, for reference:
no.	Gene	reagent no.	TNF reporter z-score, replicate mean	z-score, median over gene's siRNAs	Outcome
11	PRAF2	5	0.6	-0.095	inactive
12	PRAF2	6	1.39	-0.095	inactive
13	SELL	1	1.32	0.255	inactive
14	SELL	2	0.03	0.255	inactive
15	SELL	3	0.48	0.255	inactive
16	SELL	4	-0.36	0.255	inactive
17	SELL	5	1.98	0.255	active
18	SELL	6	-0.29	0.255	inactive
19	HMGN2	1	2.38	-0.1	active

Further records:
no.	Gene	reagent no.	TNF reporter z-score, replicate mean	z-score, median over gene's siRNAs	Outcome
25	NTF4	1	0.62	0.64	inactive
26	NTF4	2	-0.05	0.64	inactive
27	NTF4	3	1.15	0.64	inactive
28	NTF4	4	2.27	0.64	active
29	NTF4	5	0.66	0.64	inactive
30	NTF4	6	0.16	0.64	inactive
31	CDK1	1	0.34	0.285	inactive
32	CDK1	2	-0.07	0.285	inactive
33	CDK1	3	1.45	0.285	inactive
34	CDK1	4	0.23	0.285	inactive
35	CDK1	5	-0.32	0.285	inactive
36	CDK1	6	3.08	0.285	active
37	CCDC85B	1	-0.52	-0.205	inactive
38	CCDC85B	2	-0.91	-0.205	inactive
39	CCDC85B	3	-0.1	-0.205	inactive
40	CCDC85B	4	-0.23	-0.205	inactive
41	CCDC85B	5	-0.18	-0.205	inactive
42	CCDC85B	6	3.35	-0.205	active
43	SLC6A14	1	0.33	0.28	inactive
44	SLC6A14	2	1.5	0.28	active
45	SLC6A14	3	0.28	0.28	inactive
46	SLC6A14	4	-0.14	0.28	inactive
47	SLC6A14	5	-1.21	0.28	active
48	SLC6A14	6	0.28	0.28	inactive
49	KLK6	1	0.6	0.365	inactive
50	KLK6	2	-0.33	0.365	inactive
51	KLK6	3	-0.03	0.365	inactive
52	KLK6	4	0.45	0.365	inactive
53	KLK6	5	0.48	0.365	inactive
54	KLK6	6	0.28	0.365	inactive
55	KAT7	1	1.71	0.995	active
56	KAT7	2	1	0.995	inactive
57	KAT7	3	0.16	0.995	inactive
58	KAT7	4	0.52	0.995	inactive
59	KAT7	5	0.99	0.995	inactive
60	KAT7	6	1.46	0.995	inactive
